Experimental data: PubChem BioAssay AID504786 (Drosophila RNAi Screening Center, 2011)
The deposit covers about 21,000 reagents; this is a random part of those with a known target gene and a result. 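Primary screen; positive scores mean lost reporter signal, so the sign may be inverted from the usual convention.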 Reagents against one gene are numbered here. A plus sign joins genes that one reagent is predicted to hit. No sequences are given here.

- Screen: 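Positive regulators of HIF-driven reporter output in Drosophila cells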 (primary screen)
- System: Drosophila S2 cells with a stable HIF luciferase reporter
- Reagents: long dsRNA against Drosophila genes, about 0.2 µg dsRNA per well of a 384-well plate
- Time to read-out: three days of knock-down, then 20 h of DFO before reading
- Treatment: desferrioxamine (DFO) at 100 µM, an iron chelator that mimics hypoxia, for 20 h
- Measurement: 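HIF reporter luminescence in cells given 100 µM DFO for 20 h, using the mouse ldh-a hypoxia-response element, scored as per-plate z-scores; higher means greater loss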
- Scale: z-score: higher = stronger loss of HIF reporter signal

target	reagent no.	z-score, replicate 1	z-score, replicate 2	z-score, replicate 3	z-score, replicate 4
CG14502	1	-0.2	-0.5		
Taf12L (TBP-associated factor 30kD subunit alpha-2)	1	-0.2	-0.1		
CG32440	1	0.1	-0.1		
Rrp5 (Ribosomal RNA Processing 5)	1	-0.2	0.2		
Adh + Adhr	1	-0.3	-0.2		
Adh + Adhr	2	-0.2	-0.3		
FipoQ (F-box involved in polyQ pathogenesis)	1	1.2	1.5		
Sgs4 (Salivary gland secretion 4)	1	-0.4	-0.3		
CG4270	1	-0.3	0		
spdi (split discs)	1	-0.2	-0.6		
spdi (split discs)	2	-0.3	-0.6		
CG11668	1	-0.5	-0.4		
CG10062	1	-0.2	-0.4		
CG30431	1	-0.4	-0.3		
CG30431	2	-0.1	-0.5		
CG3618	1	-0.1	-0.2		
CG31219	1	-0.5	-0.1		
CG14190	1	-0.1	0.3		
Arr2 (Arrestin 2)	1	-0.4	-0.2		
Dera (Deoxyribose-phosphate aldolase)	1	-0.3	-0.6		
STUB1 (STIP1 homology and U-box containing protein 1)	1	-0.2	-0.3		
eRF3 (eukaryotic translation release factor 3)	1	-0.3	0.3		
CG17917	1	-0.3	-0.1		
hpRNA:CR18854 (hairpin RNA:CR18854)	1	-0.2	0.4		
CG9701	1	-0.2	-0.4		
Esp (Epidermal stripes and patches)	1	-0.2	-0.5		
CG31342	1	-0.4	-0.3		
CG31342	2	-0.1	-0.6		
yip7 (yippee interacting protein 7)	1	-0.2	0		
CG11155	1	-0.2	-0.5		
CG11155	2	-0.3	-0.8		
Ibf1 (Insulator binding factor 1)	1	-0.2	0.2		
Kdm4B (Lysine demethylase 4B)	1	-0.1	-0.1		
CG12398	1	-0.2	-0.2		
pyx (pyrexia)	1	-0.3	0.5		
pyx (pyrexia)	2	1.1	1.9		
Dus2 (Dihydrouridine synthase 2)	1	-0.2	-0.3		

13 successive reagents already listed, quoted:
target	reagent no.	z-score, replicate 1	z-score, replicate 2	z-score, replicate 3	z-score, replicate 4
eRF3 (eukaryotic translation release factor 3)	1	-0.3	0.3		
CG17917	1	-0.3	-0.1		
hpRNA:CR18854 (hairpin RNA:CR18854)	1	-0.2	0.4		
CG9701	1	-0.2	-0.4		
Esp (Epidermal stripes and patches)	1	-0.2	-0.5		
CG31342	1	-0.4	-0.3		
CG31342	2	-0.1	-0.6		
yip7 (yippee interacting protein 7)	1	-0.2	0		
CG11155	1	-0.2	-0.5		
CG11155	2	-0.3	-0.8		
Ibf1 (Insulator binding factor 1)	1	-0.2	0.2		
Kdm4B (Lysine demethylase 4B)	1	-0.1	-0.1		
CG12398	1	-0.2	-0.2		

The list goes on.
target	reagent no.	z-score, replicate 1	z-score, replicate 2	z-score, replicate 3	z-score, replicate 4
Mst57Da (Male-specific RNA 57Da)	1	-0.6	-0.2		
CSN1b (COP9 signalosome subunit 1b)	1	1.6	1.1		
CG3902	1	-0.2	0.5		
Mur82C (Mucin related 82C)	1	1.4	0.9		
Mur82C (Mucin related 82C)	2	-0.3	-0.9		
msopa (male-specific opa containing gene)	1	1.9	4.5		
org-1 (optomotor-blind-related-gene-1)	1	-0.4	-0.9		
Rab3-GAP (Rab3 GTPase activating protein)	1	-0.4	-0.7		
CG5262	1	-0.4	-0.5		
CG15344 (retired record)	1	-0.3	-0.7		
CG12374	1	-0.3	-0.6		
CG34022 (retired record)	1	0.2	0		
mRpL22 (mitochondrial ribosomal protein L22)	1	1.9	0.6		
CG30377	1	-0.5	-0.6		
CG30377	2	0.2	0.3		
Dif (Dorsal-related immunity factor)	1	-0.2	-0.3		
mtg (mind the gap)	1	-0.3	-0.2		
ana3 (anastral spindle 3)	1	0	0		
Cyp6a21 (Cytochrome P450 6a21)	1	-0.1	-0.3		
CG11249	1	-0.3	0.1		
CG33998	1	0.9	-0.2		
CG9676	1	0.1	-0.3		
Gs2 (Glutamine synthetase 2)	1	-0.2	-0.4		
sa (spermatocyte arrest)	1	-0.3	-0.3	0	-0.2
Grx1 (Glutaredoxin 1)	1	0.1	0.6		
CG10953	1	-0.3	-0.4		
CG10510	1	-0.2	-0.2		
Acox57D-d (acyl-Coenzyme A oxidase at 57D distal)	1	-0.3	-0.6		
CG3106	1	-0.3	-0.3		
CG13223	1	-0.4	-0.4		
CG7772	1	-0.2	-0.5		
MED11 (Mediator complex subunit 11)	1	6.7	8.1		
CG42262 (retired record)	1	0.6	0.1		
CG42262 (retired record)	2	-0.2	-0.2		
CG33225	1	0.2	0.1		
CG34214	1	-0.2	-0.1		
tal-1A + tal-2A + tal-AA + 1 more	1	0	0		
CG32832	1	-0.2	-0.7		
GstE12 (Glutathione S transferase E12)	1	0.3	-0.1		
CG6753	1	-0.4	0		
hbt (headbutt)	1	-0.4	-0.5		
Nemp (Nuclear envelope integral membrane protein)	1	-0.1	-0.5		
rngo (rings lost)	1	-0.6	-0.4		
CG5819	1	-0.2	-0.2		
CG33136	1	0.3	-0.1		
tbrd-2	1	-0.2	1.8		
